PMC4391915

Columns and labels:
Bichir VDR + RXRWT [1] = assay: EMSA; settings: 100 mM KCl, 10 mM HEPES pH 7.6, 1 mM EDTA, 20 mM MgCl2, 1 mM DTT, 0.1 mg/ml BSA, 4 ug/mL salmon sperm DNA, 1% glycerol, 25 C, 100 ng each protein, 1 pmol probe in 20 uL, recombinant protein, label: 5' Cy5 (unlabeled as competitor)
Skate VDR + RXRWT [2] = assay: EMSA; settings: 100 mM KCl, 10 mM HEPES pH 7.6, 1 mM EDTA, 20 mM MgCl2, 1 mM DTT, 0.1 mg/ml BSA, 4 ug/mL salmon sperm DNA, 1% glycerol, 25 C, 100 ng each protein, 1 pmol probe in 20 uL, recombinant protein, label: 5' Cy5 (unlabeled as competitor)
Human VDR + RXRWT [3] = assay: EMSA; settings: 100 mM KCl, 10 mM HEPES pH 7.6, 1 mM EDTA, 20 mM MgCl2, 1 mM DTT, 0.1 mg/ml BSA, 4 ug/mL salmon sperm DNA, 1% glycerol, 25 C, 100 ng each protein, 1 pmol probe in 20 uL, recombinant protein, label: 5' Cy5 (unlabeled as competitor)
Lamprey VDR + RXRWT [4] = assay: EMSA; settings: 100 mM KCl, 10 mM HEPES pH 7.6, 1 mM EDTA, 20 mM MgCl2, 1 mM DTT, 0.1 mg/ml BSA, 4 ug/mL salmon sperm DNA, 1% glycerol, 25 C, 100 ng each protein, 1 pmol probe in 20 uL, recombinant protein, label: 5' Cy5 (unlabeled as competitor)
Bichir VDR + RXRWT [5] = assay: competition with a labelled probe; settings: 100-fold excess vs N1, with and without 1,25D3; 100 mM KCl, 10 mM HEPES pH 7.6, 1 mM EDTA, 20 mM MgCl2, 1 mM DTT, 0.1 mg/ml BSA, 4 ug/mL salmon sperm DNA, 1% glycerol, 25 C; 100 ng each protein, 1 pmol probe in 20 uL; recombinant protein; label: none (unlabeled competitor)
Skate VDR + RXRWT [6] = assay: competition with a labelled probe; settings: 100-fold excess vs N1, with and without 1,25D3; 100 mM KCl, 10 mM HEPES pH 7.6, 1 mM EDTA, 20 mM MgCl2, 1 mM DTT, 0.1 mg/ml BSA, 4 ug/mL salmon sperm DNA, 1% glycerol, 25 C; 100 ng each protein, 1 pmol probe in 20 uL; recombinant protein; label: none (unlabeled competitor)
Human VDR + RXRWT [7] = assay: competition with a labelled probe; settings: 100-fold excess vs N1, with and without 1,25D3; 100 mM KCl, 10 mM HEPES pH 7.6, 1 mM EDTA, 20 mM MgCl2, 1 mM DTT, 0.1 mg/ml BSA, 4 ug/mL salmon sperm DNA, 1% glycerol, 25 C; 100 ng each protein, 1 pmol probe in 20 uL; recombinant protein; label: none (unlabeled competitor)
Lamprey VDR + RXRWT [8] = assay: competition with a labelled probe; settings: 100-fold excess vs N1, with and without 1,25D3; 100 mM KCl, 10 mM HEPES pH 7.6, 1 mM EDTA, 20 mM MgCl2, 1 mM DTT, 0.1 mg/ml BSA, 4 ug/mL salmon sperm DNA, 1% glycerol, 25 C; 100 ng each protein, 1 pmol probe in 20 uL; recombinant protein; label: none (unlabeled competitor)
[9] = 100 nM 1,25D3 (enhanced binding)
[10] = no ligand (ethanol), less than with 1,25D3

| Sequence | binding result (Bichir VDR + RXRWT [1]; [9]) | binding result (Bichir VDR + RXRWT [1]; [10]) | binding result (Skate VDR + RXRWT [2]; [9]) | binding result (Skate VDR + RXRWT [2]; [10]) | binding result (Human VDR + RXRWT [3]; [9]) | binding result (Human VDR + RXRWT [3]; [10]) | binding result (Lamprey VDR + RXRWT [4]; [9]) | binding result (Lamprey VDR + RXRWT [4]; [10]) | binding result (Bichir VDR + RXRWT [5]) | binding result (Skate VDR + RXRWT [6]) | binding result (Human VDR + RXRWT [7]) | binding result (Lamprey VDR + RXRWT [8]) |
| --- | --- | --- | --- | --- | --- | --- | --- | --- | --- | --- | --- | --- |
| GCTGAATGAACTTGCTGACCCTCTGCT (double strand) [XREM VDRE (CYP3A4 DR3)] | binds | binds | binds | binds | binds | binds | binds | binds | – | – | – | – |
| AGCTTCAGGTCAAGGAGGTCAGAGAGC (double strand) [canonical VDRE (DR3)] | binds | binds | binds | binds | binds | binds | binds | binds | – | – | – | – |
| AGCTTCAGAACAAGGAGAACAGAGAGC (double strand) [mutant canonical VDRE] | – | – | – | – | – | – | – | – | no binding | no binding | no binding | no binding |

The exact form of at least one protein or probe is not confirmed. For some assays here: No signal at the amounts used counts as a negative.
